Numbering of substitutions follows the chain as printed. No constants are given. Whether binding was seen depends on the method and setting. In cells and extracts the contact can be indirect. These calls come from enrichment with a bait or labelling near it, and not all partners need be listed. Sequences can lack the tags named with a protein.
What was measured:
[1] = biological target: T1, GFP-MKRN1^wt (Makorin Ring Finger Protein 1, wild type, N-terminally GFP-tagged) (human) (UniProt Q9UHC7); experiment: affinity purification with mass spectrometry; GFP-trap agarose beads with cleared lysates of HEK293T cells transiently expressing N-terminally GFP-tagged MKRN1 wt or mutants (medium or heavy SILAC) or GFP alone (light SILAC); mRIPA buffer, 1 h at 4 °C; three replicates, FDR < 5%
T1 sequence: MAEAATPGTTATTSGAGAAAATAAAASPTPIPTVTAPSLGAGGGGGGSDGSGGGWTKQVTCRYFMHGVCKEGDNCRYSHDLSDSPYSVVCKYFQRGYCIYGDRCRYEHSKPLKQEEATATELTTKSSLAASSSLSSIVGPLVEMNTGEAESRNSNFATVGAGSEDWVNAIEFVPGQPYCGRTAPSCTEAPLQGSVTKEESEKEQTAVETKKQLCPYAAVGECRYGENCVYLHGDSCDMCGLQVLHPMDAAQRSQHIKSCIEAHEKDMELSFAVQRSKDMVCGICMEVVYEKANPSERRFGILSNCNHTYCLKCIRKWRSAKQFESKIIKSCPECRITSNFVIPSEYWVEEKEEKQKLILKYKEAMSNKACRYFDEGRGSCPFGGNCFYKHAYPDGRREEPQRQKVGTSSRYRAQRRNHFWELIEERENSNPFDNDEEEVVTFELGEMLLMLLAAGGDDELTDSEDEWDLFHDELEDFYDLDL

Sequences of proteins named here, by UniProt entry; tags and fusion partners are left off.
UniProt P11940: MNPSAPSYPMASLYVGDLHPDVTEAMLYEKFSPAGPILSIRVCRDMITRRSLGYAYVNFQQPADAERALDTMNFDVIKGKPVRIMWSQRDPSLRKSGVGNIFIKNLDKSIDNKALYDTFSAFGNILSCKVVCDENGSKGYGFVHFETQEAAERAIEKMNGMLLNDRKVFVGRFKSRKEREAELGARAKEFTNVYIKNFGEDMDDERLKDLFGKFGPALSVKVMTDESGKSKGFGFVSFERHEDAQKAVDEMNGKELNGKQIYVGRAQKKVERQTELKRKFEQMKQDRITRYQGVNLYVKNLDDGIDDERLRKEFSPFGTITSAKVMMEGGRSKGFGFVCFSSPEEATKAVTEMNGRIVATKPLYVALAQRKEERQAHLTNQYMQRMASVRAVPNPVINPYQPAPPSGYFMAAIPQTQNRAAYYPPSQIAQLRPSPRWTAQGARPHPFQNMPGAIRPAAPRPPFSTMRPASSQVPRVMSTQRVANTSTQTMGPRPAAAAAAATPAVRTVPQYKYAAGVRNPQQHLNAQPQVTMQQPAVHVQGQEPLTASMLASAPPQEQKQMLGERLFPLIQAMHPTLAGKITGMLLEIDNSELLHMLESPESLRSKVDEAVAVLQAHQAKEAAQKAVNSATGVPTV
UniProt O00425: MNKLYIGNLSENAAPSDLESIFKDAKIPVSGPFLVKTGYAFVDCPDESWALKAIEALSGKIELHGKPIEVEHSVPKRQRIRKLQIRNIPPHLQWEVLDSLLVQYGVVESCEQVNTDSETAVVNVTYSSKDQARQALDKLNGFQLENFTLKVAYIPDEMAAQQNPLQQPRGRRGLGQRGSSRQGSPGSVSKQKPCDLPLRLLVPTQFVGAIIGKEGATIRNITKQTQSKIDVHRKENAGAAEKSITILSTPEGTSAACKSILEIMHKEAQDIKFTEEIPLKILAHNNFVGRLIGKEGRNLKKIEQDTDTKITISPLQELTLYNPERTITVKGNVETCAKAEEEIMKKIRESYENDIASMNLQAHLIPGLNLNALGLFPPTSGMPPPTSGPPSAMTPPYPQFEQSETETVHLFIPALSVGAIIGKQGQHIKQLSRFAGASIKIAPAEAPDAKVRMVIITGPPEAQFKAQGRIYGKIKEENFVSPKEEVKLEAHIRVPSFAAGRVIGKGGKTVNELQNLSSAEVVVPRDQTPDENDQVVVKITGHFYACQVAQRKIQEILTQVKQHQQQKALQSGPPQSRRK
UniProt Q9Y6M1: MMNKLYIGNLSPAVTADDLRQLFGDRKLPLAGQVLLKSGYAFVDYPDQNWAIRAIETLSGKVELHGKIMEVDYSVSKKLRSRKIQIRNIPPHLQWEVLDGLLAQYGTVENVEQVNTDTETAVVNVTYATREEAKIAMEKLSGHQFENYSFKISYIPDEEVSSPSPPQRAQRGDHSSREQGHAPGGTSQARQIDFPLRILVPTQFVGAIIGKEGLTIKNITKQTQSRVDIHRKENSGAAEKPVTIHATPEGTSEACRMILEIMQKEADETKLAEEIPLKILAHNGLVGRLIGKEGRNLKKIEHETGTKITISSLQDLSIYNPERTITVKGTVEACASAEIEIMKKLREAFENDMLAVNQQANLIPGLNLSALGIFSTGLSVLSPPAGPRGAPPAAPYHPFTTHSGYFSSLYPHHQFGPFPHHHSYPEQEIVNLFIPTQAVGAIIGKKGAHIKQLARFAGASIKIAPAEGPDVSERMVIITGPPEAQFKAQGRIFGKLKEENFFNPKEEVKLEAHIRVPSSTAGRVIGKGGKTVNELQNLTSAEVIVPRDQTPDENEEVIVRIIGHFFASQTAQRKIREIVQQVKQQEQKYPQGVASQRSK
UniProt Q15717: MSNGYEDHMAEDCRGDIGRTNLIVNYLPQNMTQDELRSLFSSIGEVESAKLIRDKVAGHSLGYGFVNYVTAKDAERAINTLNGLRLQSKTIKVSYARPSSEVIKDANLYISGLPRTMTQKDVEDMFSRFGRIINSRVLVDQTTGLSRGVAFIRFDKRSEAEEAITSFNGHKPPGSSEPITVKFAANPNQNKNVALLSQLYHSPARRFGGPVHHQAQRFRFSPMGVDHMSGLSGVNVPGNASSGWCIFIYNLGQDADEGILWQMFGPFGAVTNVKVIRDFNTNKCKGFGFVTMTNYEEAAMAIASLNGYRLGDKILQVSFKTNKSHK

[2] = biological target: T2, GFP-MKRN1^RINGmut (H307E, ligase-dead) (human) (UniProt Q9UHC7); experiment: as above
T2 sequence: T1 sequence with H307E

Row | Substance | binding [1] | binding [2]
1 | cytoplasmic poly(A)-binding protein PABPC1 (endogenous) (from UniProt P11940 1-636) | binds | binds
2 | IGF2BP3 (endogenous) (from UniProt O00425 1-579) | binds | 
3 | IGF2BP2 (endogenous) (from UniProt Q9Y6M1 1-599) | binds | 
4 | ELAVL1 (endogenous) (from UniProt Q15717 1-326) | binds | 

Reference: paper PMC6805484
